Test results as given in PubChem BioAssay AID1259415 (National Center for Advancing Translational Sciences (NCATS), 2018).
The whole screen tested about 410,000 compounds, of which about 18,000 (4.4%) were called active. Inconclusive results, whose numbers are uncertain, are shown with a selection of clear calls. Cut-off read from the data, not from the text of the source: active = activity change below about -60%; inconclusive = no clear call, values can overlap the other calls; inactive = above about -39%.

Test: qHTS Assay for inhibitors of the human cytomegalovirus (HCMV)
Details: HFF cells, HCMV-luciferase reporter, 72 h; at 57.5 µM; active compounds read low
Summary of the method: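 Steps: HFFs plated, 16 h 37C; compounds added; HCMV-luciferase added to MOI 1 PFU/cell; 72 h 37C; OneGlo reagent, 5 min room temperature; luminescence read, normalized to controls.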
% is set by controls: 0 for no effect and ±100 for the full control effect.

Row | SMILES | activity change, negative = inhibition
1 | O=C(NCc1ccc(Cl)cc1)C(=O)NCC(c1cccnc1)N1CCN(c2ccc(F)cc2)CC1 (stereo not drawn) | inconclusive: -58%
2 | COc1ccc(NC(=O)c2ccc(-c3ccccc3)cc2)cc1S(=O)(=O)N1CCOCC1 | active: -68.1%
3 | Cc1c(Cc2ccccc2)sc(NC(=O)c2ccco2)c1C(N)=O | inconclusive: -40.4%
4 | O/N=C(/Cc1ccccn1)c1ccccc1 | inactive: 13.2%
5 | Nc1nonc1C(=O)N/N=C\c1cc2c(cc1Cl)OCO2 | inconclusive: -57.2%
6 | NC(=O)CSc1ccc(F)cc1 | inconclusive: -46.4%
7 | CC[C@]12c3[nH]c4ccc(Cl)cc4c3CCN1C(=O)[C@@H](CC(=O)NC/C=C(\C)CCC=C(C)C)C[C@@H]2C(=O)N1CCN(C(=O)C2CC2)CC1 | inconclusive: -45.8%
8 | COc1ccc(Cl)cc1NC(=O)CN1c2ccccc2CC1C (stereo not drawn) | inconclusive: -57.1%
9 | CCCCCn1c(NCc2ccco2)nc2ccccc21 | inconclusive: -56.8%
10 | Fc1cccc(/C=N/Nc2ncnc3nc[nH]c23)c1 | inactive: 138%
11 | CCOC(=O)c1cc(-c2ccccc2)n(CCC(=O)N2CCN(c3ccccn3)CC2)c1C | inactive: -14.1%
12 | Cc1ccc(C(O)(C(=O)NNc2ccccn2)c2ccc(C)cc2)cc1 | inconclusive: -50.7%
13 | CC(=O)N(c1c(C)n(C)n(-c2ccccc2)c1=O)C1(C(=O)NC2CCCCC2)CCCCC1 | inactive: 9.85%
14 | CCOc1ccc(NC(=O)N(Cc2ccc(CC)cc2)Cc2cn[nH]c2-c2ccc(OC)cc2)cc1 | inconclusive: -45.1%
15 | CCc1c(C(=O)NCc2ccccc2Cl)[nH]c(C)c1C(C)=O | inconclusive: -45.4%
16 | O=C(Nc1nnc(C2CCCO2)s1)c1ccc(Br)cc1 (stereo not drawn) | inactive: 90.4%
17 | O=C(Nc1ccc(S(=O)(=O)NC2=NCCCCC2)cc1)c1ccc(C(F)(F)F)cc1 | active: -66.9%
18 | COc1cc(C(C(=O)NC2CCCC2)N(Cc2ccccc2)C(=O)c2snc(C(N)=O)c2N)ccc1O (stereo not drawn) | active: -99.2%
19 | CC1CCN(C(C)C(=O)Nc2cc(S(=O)(=O)N3CCCCC3)ccc2Cl)CC1 (stereo not drawn) | inconclusive: -48.9%
20 | CC(=O)Nc1nc2ccccc2n1Cc1ccc(C)cc1 | inconclusive: -44.2%
21 | Cc1cc2c(cc(C(=O)OC(C(=O)NCC3CCCO3)C(C)C)n2C)o1 (stereo not drawn) | inconclusive: -55.2%
22 | COc1ccc(Oc2nc3ccccc3n(C)c2=O)cc1 | inconclusive: -55.2%
23 | CC(=O)c1ccccc1NS(=O)(=O)c1c(C)nn(-c2ccccc2)c1C | inconclusive: -43.9%
24 | O=C(NCCc1ccc2c(c1)OCCO2)c1cc(F)cc(F)c1 | inconclusive: -47.7%
25 | O=c1c(-c2cc(-c3ccc(F)cc3)nc3c2COc2ccc(Cl)cc2-3)coc2ccc(F)cc12 | inactive: -21.4%
26 | COc1ccc(NC(=O)COC(=O)c2ccco2)c([N+](=O)[O-])c1 | inconclusive: -52.7%
27 | COC(=O)c1cccc(-n2sc3ccccc3c2=O)c1 | inconclusive: -58.6%

Row | SMILES | activity change, negative = inhibition
28 | O=C(/C=C/c1cccs1)Nc1ccc(Br)cn1 | active: -66.1%
29 | CCOC(=O)c1ccccc1NC(=O)c1ccc2c(SCC(=O)O)c3c(nc2c1)CCCC3 | inconclusive: -56.9%
30 | c1ccc(Cc2nc3ccccc3n2Cc2ccccc2)cc1 | inconclusive: -56.2%
31 | CC(C)c1ccc(NC(=O)CSC2=Nc3ccccc3C3=NC(CCC(=O)NCc4ccc(F)cc4)C(=O)N23)cc1 (stereo not drawn) | inconclusive: -58.6%
32 | O=C(N/N=C/c1ccccn1)c1cc(C2CC2)[nH]n1 | inconclusive: -42.6%
33 | COc1ccc(OCCn2cc(C(=O)c3ccco3)c3ccccc32)cc1 | inactive: 0.104%
34 | CC(=O)Nc1ccc(Nc2nc(-c3sc(NC(C)=O)nc3C)cs2)cc1 | inactive: -27.2%
35 | COc1ccc(Cl)cc1NC(=O)c1nnn(CC(=O)Nc2cc(C)cc(C)c2)c1N | inconclusive: -53%
36 | O=C(c1ccco1)N1CCN=C1SCc1cccc(F)c1 | inconclusive: -54.9%
37 | Cc1ccc(-c2noc(CN(C3CCCCC3)S(=O)(=O)c3ccc(F)cc3)n2)cc1 | inconclusive: -48.9%
38 | COc1ccc(N(/N=C2\Sc3ccccc3C2=O)C(C)=O)cc1 | inactive: -30.5%
39 | C=C(NC(=O)C(=C)NC(=O)c1csc(C2=NC3c4csc(n4)C4NC(=O)c5csc(n5)C(C(C)(O)C(C)O)NC(=O)C5CSC(=N5)/C(=C/C)NC(=O)C(C(C)O)NC(=O)c5csc(n5)C3(CC2)NC(=O)C(C)NC(=O)C(=C)NC(=O)C(=C)NC(=O)C(C(C)C)NC2C=Cc3c(C(C)O)cc(nc3C2O)C(=O)OC4C)n1)C(N)=O (stereo not drawn) | active: -97.8%
40 | Cc1nnc(C)c2c(C)n(Cc3ccc4c(c3)OCO4)c(C)c12 | inconclusive: -43.7%
41 | Cc1cc(C)n2nc(NCc3ccccc3Cl)nc2n1 | inactive: -7.74%
42 | COc1ccc(S(=O)(=O)N2CCC(C(=O)N3CCCCC3)CC2)cc1 | inconclusive: -59.6%
43 | CN1C(=O)N(C)c2ccc(Br)c3cccc1c23 | inconclusive: -52.8%
44 | O=C(CCCC(=O)N(CC(=O)NC1CCCCC1)c1cccc(F)c1)Nc1ccccn1 | inconclusive: -43.7%
45 | Cc1ccc(C)c(NC(=O)Cn2c(=O)n(Cc3nc(C)no3)c(=O)c3cc4c(cc32)OCO4)c1 | inactive: 6.71%
46 | Cc1ccc(-c2cc(C(=O)N3CCN(S(=O)(=O)c4ccc(Br)s4)CC3)[nH]n2)cc1C | inconclusive: 0%
47 | CN(C)c1cc[n+](Cc2c(Cl)cccc2Cl)cc1 | active: -87.4%
48 | O=C(CNC(=O)c1ccc(Br)o1)NNC(=O)c1n[nH]c(=O)c2ccccc12 | inactive: -16.1%
49 | COc1ccccc1NS(=O)(=O)c1cccc(C(=O)N2CCN(C/C=C/c3ccccc3)CC2)c1 | inactive: 1%
50 | Cc1ccc(C2=NOC(=O)/C2=C\C=C\c2ccccc2)cc1 | active: -109%
51 | CNc1nc(Nc2ccc(Br)cc2)nc(N)c1[N+](=O)[O-] | inactive: 44.7%
52 | CCCC[C@H]1COCCS(=O)(=O)N1Cc1ccc(C)cc1 | inconclusive: -54.9%
53 | O=C(NC(=S)Nc1ccccc1O)c1cncc(Br)c1 | inconclusive: -41.5%

A draw from above in order of formula weight, descending:
Row | SMILES | activity change, negative = inhibition
45 | Cc1ccc(C)c(NC(=O)Cn2c(=O)n(Cc3nc(C)no3)c(=O)c3cc4c(cc32)OCO4)c1 | inactive: 6.71%
40 | Cc1nnc(C)c2c(C)n(Cc3ccc4c(c3)OCO4)c(C)c12 | inconclusive: -43.7%
32 | O=C(N/N=C/c1ccccn1)c1cc(C2CC2)[nH]n1 | inconclusive: -42.6%
